# Experimental data taken from publication PMC12040169 (PLOS Biology, 2025).
# The list shows a part of the results.
# Tested on: T1, CTL2-GFP (C. trachomatis L2/434/Bu, GFP-expressing)
# T1 construct: L2/434/Bu, GFP-expressing
# Set-up: species or system HeLa; Intracellular C. trachomatis growth in HeLa cells, bulk GFP fluorescence relative to DMSO
# Details: bulk GFP, single well; 28.5 h, 10 µM; inhibitor
row,SMILES,% of control remaining [%]
1,Cc1ccc(S(=O)(=O)Cc2ccc(C(=O)N3CCN(Cc4ccccc4)CC3)cc2)cc1 [CBK269588],125.501
2,CCOC(=O)c1ccc(NC(=S)NCCN(CC)CC)cc1 [CBK018358],130.256
3,Cc1cc(COc2nccnc2N2CCN(Cc3ccc(C(C)C)cc3)CC2)no1 [CBK084186],168.069
4,CC(C)Cc1noc(CN2CCC(C(=O)NCc3ccco3)CC2)n1 [CBK305995],83.2386
5,CN(C(=O)C1CC1)c1nc2c(s1)CCc1c-2cnn1C [CBK281927],119.891
6,Cn1c(=O)[nH]c(=O)c2c1nc(SCCN1CCOCC1)n2CCCc1ccccc1 [CBK269234],122.343
7,O=C(c1cncnc1)N1CCC(Cn2cncn2)(C2CCCCC2)CC1 [CBK136823],102.338
8,COc1ccc(S(=O)(=O)NC(C)C(=O)Nc2cc(Cl)ccc2OC)cc1 (stereo not drawn) [CBK269479],112.339
9,O=C1COc2ccccc2C/C=C/CC2(CCN(C(=O)c3n[nH]c4c3CCC4)CC2)CN1 [CBK292019],89.1359
10,Cc1[nH]c(=O)c(C#N)cc1C(=O)N(C)Cc1cc(-c2ccncc2)no1 [CBK306859],90.3204
11,COc1cncc(C(NC(=O)c2ccc3c(c2)CCC3)[C@H]2C[C@H](O)C2)c1 (stereo partly drawn) [CBK307646],94.8681
12,CCOC(=O)CN1CCN(C(=O)Nc2ccccc2OC(F)(F)F)CC1 [CBK043656],80.7085
13,CC(CCN1CCN(C)CC1)c1ccccc1 (stereo not drawn) [CBK261881],119.159
14,O=C(O)COCCn1cc(-c2ccc(Cl)cc2)cn1 [CBK021914],133.255
15,COc1ccc(S(=O)(=O)NCCNC(=O)c2ccc(-c3cccc(Cl)c3Cl)nc2NCc2cccnc2)cc1 [CBK076436],122.835
16,COc1ccc(C(=O)C2=C(O)C(=O)N(CCN3CCOCC3)C2c2ccc(Cl)cc2)cc1 (stereo not drawn) [CBK264718],100
17,Cc1nc(CCCn2cnc3ncccc3c2=O)sc1C [CBK306953],104.865
18,Cn1c(=O)n(CC(=O)N2CCCc3ccccc32)c2cccnc21 [CBK283790],122.46
19,CCCc1cc(-c2c(Cl)cccc2Cl)[nH]n1 [CBK107818],98.4012
20,CC(C)c1nccn1CCC(=O)N1CCC(c2ccncc2)CC1 [CBK283512],81.9315
21,O=C(NCc1ccc2c(c1)OCO2)c1ccc2c(c1)C(=O)N(Cc1cccnc1)C2=O [CBK267824],124.834
22,CN1CCC(N2CCN(C(=O)c3ccc(-c4ccc(S(C)(=O)=O)cc4)nc3)CC2)CC1 [CBK158862],127.423
23,Cn1cc(CCO)c2ccccc21 [CBK081087],111.137
24,Nc1cccc(-c2nccnc2NCc2cccs2)c1 [CBK037537],113.279
25,Cc1c(C(=O)N2CC(n3cc(C(C)(C)O)nn3)C2)sc2cccc(F)c12 [CBK306398],152.45
26,CC(C)(CO)CNc1nc(-c2ccc3c(c2)OCO3)cnc1N [CBK063459],155.232

row,SMILES,% of control remaining [%]
1,COC(=O)c1ccsc1NS(=O)(=O)c1cc(Cl)sc1Cl [CBK039062],111.867
2,O=C(O)CCC(=O)Nc1ccccc1C(=O)N1CCCCC1 [CBK266100],100
3,Cc1ccc(C(=O)N2CCCN(C(=O)CN3CCCC3)C2)cc1 [CBK039081],103.46
4,CCOc1c(OC)cc(C#N)cc1C(=O)O [CBK269925],138.009
5,Cc1cc(Br)ccc1NC(=O)Cn1cnc2c1c(=O)n(C)c(=O)n2C [CBK133289],116.032
6,CC1(C)CC(=O)c2sc(NS(=O)(=O)c3sc(Cl)cc3Br)nc2C1 [CBK200029],106.932
7,O=c1c(Oc2ccccc2Br)c(C(F)(F)F)oc2c(CN3CCCC3)c(O)ccc12 [CBK217827],129.822
8,COc1ccccc1N1CCN(C(=O)c2c(Cl)cnn2C)CC1 [CBK288247],115.087
9,Cc1nc(-c2ccccc2)sc1C(=O)C1=C(O)C(=O)N(CCCN2CCOCC2)C1c1ccco1 (stereo not drawn) [CBK266476],96.7077
10,O=S(=O)([O-])CCC[n+]1c(/C=C/Nc2ccccc2)oc2ccc3ccccc3c21 [CBK261082],88.9893
11,CN(C)[C@@H]1CN(C(=O)C2CC2)C[C@H]1c1cn(C)c2ccccc12 [CBK282681],107.518
12,CCOc1cc(Cl)c(S(=O)(=O)NCCCN2CCOCC2)cc1Cl [CBK268781],129.445
13,Cn1cc(C(C(=O)O)N2CCN(c3ccccc3)CC2)c2cc(C(=O)O)ccc21 (stereo not drawn) [CBK286627],94.109
14,COc1ccc(C(=O)N2CCN(c3ccc(NC(=O)c4cccnc4)cc3)CC2)cc1 [CBK270200],145.844
15,CCCC(NC(=O)c1cccc(-n2cnnc2)c1)c1cccs1 (stereo not drawn) [CBK282745],99.2626
16,COc1cc(CNCCO)ccc1OCc1cccc(Cl)c1 [CBK270013C],145.679
17,CC[C@H]1CN(C(C)=O)CC[C@H]1CC(=O)Nc1nccs1 [CBK289130],119.157
18,COc1ccc([C@@]23CC[C@@H](NC(=O)Nc4cccc(Br)n4)C[C@@H]2N(C)CC3)cc1OC [CBK045703],97.5729
19,O=C(CC12CC3CC(CC(C3)C1)C2)NCC(=O)Nc1ccc2[nH]c(=O)[nH]c2c1 [CBK295349],143.577
20,COCCn1c(=O)c2c(nc3oc(C(C)(C)C)cn32)n(C)c1=O [CBK307566],122.107
21,CC(C)NC(=O)NC[C@H]1C[C@@H]2CCN1C[C@@H]2c1cc(C2CCCC2)nn1C [CBK288744],104.651
22,C=CCn1c(Cc2csc(NC(=O)Cc3ccc(Cl)cc3)n2)n[nH]c1=S [CBK295359],141.35
23,CC(NC(=O)C1CCN(CCOc2ccc(F)cc2)CC1)c1cccc2ccccc12 (stereo not drawn) [CBK148634],98.4313
24,CN(C)CCNC(=O)c1cccc(-c2cc(N3CCCN(C)CC3)n3nccc3n2)c1 [CBK037143],157.726
25,O=S(=O)(O)CCCSc1nc2ccccc2o1 [CBK026507N],107.126
26,CC(=O)c1ccc(-c2nccnc2NCc2cccnc2)s1 [CBK037050],178.719

# Quoted from the results shown (5 entries):
row,SMILES,% of control remaining [%]
9,Cc1nc(-c2ccccc2)sc1C(=O)C1=C(O)C(=O)N(CCCN2CCOCC2)C1c1ccco1 (stereo not drawn) [CBK266476],96.7077
10,O=S(=O)([O-])CCC[n+]1c(/C=C/Nc2ccccc2)oc2ccc3ccccc3c21 [CBK261082],88.9893
11,CN(C)[C@@H]1CN(C(=O)C2CC2)C[C@H]1c1cn(C)c2ccccc12 [CBK282681],107.518
12,CCOc1cc(Cl)c(S(=O)(=O)NCCCN2CCOCC2)cc1Cl [CBK268781],129.445
13,Cn1cc(C(C(=O)O)N2CCN(c3ccccc3)CC2)c2cc(C(=O)O)ccc21 (stereo not drawn) [CBK286627],94.109

# (list continues)

row,SMILES,% of control remaining [%]
1,CC(C)Nc1cc(OC2CCOC2)ncn1 (stereo not drawn) [CBK115888],115.076
2,CCOC(=O)C1(C2CCCCC2)CCN(C(=O)c2cc[nH]c2)CC1 [CBK137103],145.754
3,Cc1cc(C23CC4CC(CC(C(=O)O)(C4)C2)C3)c(C)cc1C12CC3CC(CC(C(=O)O)(C3)C1)C2 [CBK261734],81.6925
4,Cc1cc(C)cc(NC2=N[C@H]3[C@@H](O)[C@H](O)C[C@H](C(=O)N4CCCCC4)[C@H]3S2)c1 [CBK288952],125.577
5,O=C(c1cccs1)N1CCC2(CC1)Nc1ccccc1-n1cccc12 [CBK283489],101.931
6,CSc1ccc(C(NC(=O)OC(C)(C)C)C(=O)O)cc1 (stereo not drawn) [CBK287196],133.228
7,O=C(c1ccccc1CCc1ccccc1)N1CCN(Cc2ccc3c(c2)OCO3)CC1 [CBK268623],103.84
8,Cn1nnnc1SCC(=O)Nc1ccc(C(=O)O)cc1 [CBK267442],125.896
9,O=C(NC1CCCCCC1)c1[nH]nc(O)c1Cc1c(Cl)cccc1Cl [CBK107847],123.586
10,COCc1cc(CC2(NCc3ccc(NC(C)=O)cc3)COC2)no1 [CBK289701],153.072
11,Cc1ccccc1NC(=O)Cc1nc(CN2CCC3(CCOC3)C2)cs1 (stereo not drawn) [CBK304164],140.561
12,COc1ncccc1NC(=O)CSCC#N [CBK306314],125.619
13,CCNC(=O)O[C@@H]1CO[C@H]2[C@@H]1OC[C@@H]2NC(=O)Nc1ccc(C(C)=O)cc1 [CBK289473],104.859
14,CC(=O)N(C)c1ncc(Br)cc1C(=O)NCCc1ccccc1 [CBK076543],121.868
15,COC(=O)[C@H]1CCc2ccccc2N1C(=O)C1CCC1 [CBK285478],83.6837
16,CCC1CCCCN1C(=O)Cn1cnc2c(Cl)cc(Cl)cc2c1=O (stereo not drawn) [CBK305833],110.212
17,O=C(O)CCC(NC(=O)c1ccc(Cl)cc1)C(=O)O (stereo not drawn) [CBK263597],127.437
18,CC(Sc1nc(N(C)C)nc(N2CCOCC2)n1)C(=O)Nc1ccc(Cl)c(Cl)c1 (stereo not drawn) [CBK269229],103.435
19,CCOCCCNC(=O)C1CCN(c2cccc(F)c2C#N)CC1 [CBK306341],73.8478
20,COc1cc(OC)cc(C(=O)N2CCC3(CC2)CC(=O)c2c(OC)cc(OC)cc2O3)c1 [CBK164233],100
21,CC(NC(=O)CCCC(=O)c1cccs1)c1cccc2ccccc12 (stereo not drawn) [CBK297748],106.674
22,CC(=O)Nc1ccc(S(=O)(=O)Nc2ccc(-c3nc4cc(C(=O)c5ccccc5)ccc4[nH]3)cc2)cc1 [CBK267819],108.634
23,Cc1cccc(OCCn2c(CCNC=O)nc3ccccc32)c1C [CBK269539],102.064
24,Cc1ccccc1-n1nc(C)c(CN(C)CC2CCN(C)C2)c1C (stereo not drawn) [CBK283035],135.432
25,OCCC1CCCCN1c1nccnc1-c1ccsc1 (stereo not drawn) [CBK037358],125.742
26,Cc1cnc(CNC(=O)c2ccc3nc[nH]c3c2)cn1 [CBK153318],166.976
